In paper PMC8532962 (Antibiotics, 2021):

Test: Helical structure by circular dichroism
Format: physicochemical
Settings: CD, 25 °C, peptide 100 μg/mL; for [θ]222 50% TFE / [θ]222 Water: 1 mm cell, average of three scans
[1] = calculated from [θ]222 with 0% = −2340 and 100% = −30,300

| Compound | [θ]222 50% TFE (50% TFE in water) | % Helix 50% TFE (50% TFE in water, calculated from [θ]222 with 0% = −2340 and 100% = −30,300) [%] | [θ]222 Water [deg · cm^2 · dmol^−1] | % Helix Water [1] [%] |
| --- | --- | --- | --- | --- |
| CC[C@H](C)[C@H](N)C(=O)N[C@@H](CC(N)=O)C(=O)N[C@@H](CCCCN)C(=O)N[C@@H](CC(C)C)C(=O)N[C@H](C(=O)N[C@H](C(=O)N[C@@H](CCCCN)C(=O)N[C@H](C(=O)NCC(=O)N[C@@H](CCCCN)C(=O)N[C@H](C(=O)N[C@H](C(=O)N[C@@H](CO)C(=O)N[C@@H](CC(C)C)C(N)=O)C(C)C)[C@@H](C)CC)C(C)C)[C@@H](C)CC)C(C)C [EMP-AF-KV] (H-INKLVIKVGKIVSL-NH2) | −13,692.93 deg · cm^2 · dmol^−1 | 37.47 | −4719.43 | 7.85 |
| CC[C@H](C)[C@H](N)C(=O)N[C@@H](CC(N)=O)C(=O)N[C@@H](CC(C)C)C(=O)N[C@@H](CC(C)C)C(=O)N[C@@H](CCCCN)C(=O)N[C@H](C(=O)N[C@@H](C)C(=O)N[C@@H](CCCCN)C(=O)NCC(=O)N[C@H](C(=O)N[C@H](C(=O)N[C@@H](CCCCN)C(=O)N[C@@H](CO)C(=O)N[C@@H](CC(C)C)C(N)=O)[C@@H](C)CC)[C@@H](C)CC)[C@@H](C)CC [EMP-AF-OR] (H-INLLKIAKGIIKSL-NH2) | −47,630.55 deg · cm^2 · dmol^−1 | – | −7711.94 | 17.73 |

Peptide text beside a SMILES is read from it.
